Laboratory results: patent publication US20130225581A1, “NITROGEN-CONTAINING AROMATIC HETEROCYCLIC DERIVATIVE” (KYOWA HAKKO KIRIN CO., LTD, priority 2010, published 2013)
pIC50: −log10 of the molar value. Some of these results come from one statement about several compounds together.

The chains behind the UniProt entries cited, without tags or fusion partners. Residues count along the entry.
UniProt P21802, 22-821: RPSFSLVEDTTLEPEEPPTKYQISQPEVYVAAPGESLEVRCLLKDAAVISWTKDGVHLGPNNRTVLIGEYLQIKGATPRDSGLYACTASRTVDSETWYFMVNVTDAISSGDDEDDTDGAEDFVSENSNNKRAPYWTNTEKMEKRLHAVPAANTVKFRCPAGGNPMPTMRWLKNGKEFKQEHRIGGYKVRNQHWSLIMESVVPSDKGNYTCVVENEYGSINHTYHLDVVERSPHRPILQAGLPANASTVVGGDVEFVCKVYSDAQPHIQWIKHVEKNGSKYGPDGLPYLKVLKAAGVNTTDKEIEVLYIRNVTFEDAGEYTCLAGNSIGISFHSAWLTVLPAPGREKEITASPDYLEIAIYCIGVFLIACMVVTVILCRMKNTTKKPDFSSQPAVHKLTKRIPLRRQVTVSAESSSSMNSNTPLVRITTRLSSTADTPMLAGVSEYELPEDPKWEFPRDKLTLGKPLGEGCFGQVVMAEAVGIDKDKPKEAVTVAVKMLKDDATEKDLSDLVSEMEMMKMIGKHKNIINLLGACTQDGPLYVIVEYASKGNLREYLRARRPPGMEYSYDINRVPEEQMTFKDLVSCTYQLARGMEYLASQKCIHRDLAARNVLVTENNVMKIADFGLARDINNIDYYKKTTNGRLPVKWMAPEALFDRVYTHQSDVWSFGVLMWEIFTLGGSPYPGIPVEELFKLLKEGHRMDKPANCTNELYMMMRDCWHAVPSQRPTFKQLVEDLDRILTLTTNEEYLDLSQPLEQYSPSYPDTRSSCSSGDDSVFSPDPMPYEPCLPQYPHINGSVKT

Biological target: T1, Human FGFR2 (Homo sapiens, UniProt P21802)
T1 construct: purchased Millipore 14-617
Experiment: Measurement of inhibitory activity of human FGFR2 enzymatic activity (mobility shift assay)
Type: biochemical
Settings: FGFR2 2 nmol/L, FL-Peptide 22 substrate, 28° C. for 240 minutes; read-out: 50% inhibitory concentration (IC50) of FGFR2 phosphorylation

SMILES: COc1cc2nccc(Oc3cc(C)c(NC(=O)Nc4[nH]c(C(C)(C)C)nc4-c4cccnc4Cl)cc3C)c2cc1OC [Compound 67, 1-[2-tert-Butyl-4-(2-chloropyridin-3-yl)-1H-imidazol-5-yl]-3-[4-(6,7-dimethoxyquinolin-4-yloxy)-2,5-dimethylphenyl]urea]
- pIC50: > 7.00

SMILES: COc1cc2nccc(Oc3ccc(NC(=O)Nc4c(-c5ccccc5)nc(C(C)(C)C)n4C)c(F)c3)c2cc1OC [Compound 5, 1-(2-tert-Butyl-1-methyl-4-phenyl-1H-imidazol-5-yl)-3-[4-(6,7-dimethoxyquinolin-4-yloxy)-2-fluorophenyl]urea]
- pIC50: > 7.00

SMILES: COc1cc2nccc(Oc3ccc(NC(=O)Nc4[nH]c(C(C)(C)C)nc4-c4ccnn4C)cc3F)c2cc1OC [Compound 23, 1-[2-tert-Butyl-4-(1-methyl-1H-pyrazol-5-yl)-1H-imidazol-5-yl]-3-[4-(6,7-dimethoxyquinolin-4-yloxy)-3-fluorophenyl]urea]
- pIC50: > 7.00

SMILES: COc1cc2nccc(Oc3ccc(NC(=O)Nc4[nH]c(C(C)(C)C)nc4-c4scnc4C)cc3)c2cc1OC [Compound 35, 1-[2-tert-Butyl-4-(4-methylthiazol-5-yl)-1H-imidazol-5-yl]-3-[4-(6,7-dimethoxyquinolin-4-yloxy)phenyl]urea]
- pIC50: > 7.00

SMILES: COc1cc2nccc(Oc3ccc(NC(=O)Nc4c(-c5ccc(F)cc5)nc(C(C)(C)C)n4C)cc3)c2cc1OC [Compound 11, 1-[2-tert-Butyl-4-(4-fluorophenyl)-1-methyl-1H-imidazol-5-yl]-3-[4-(6,7-dimethoxyquinolin-4-yloxy)phenyl]urea]
- pIC50: > 7.00

SMILES: COc1cc2nccc(Oc3ccc(NC(=O)Nc4c(-c5ccccc5F)nc(C(C)C)n4C)c(F)c3)c2cc1OC [Compound 14, 1-[4-(6,7-Dimethoxyquinolin-4-yloxy)-2-fluorophenyl]-3-[4-(2-fluorophenyl)-2-isopropyl-1-methyl-1H-imidazol-5-yl]urea]
- pIC50: > 7.00

SMILES: COc1cc2nccc(Oc3ccc(NC(=O)Nc4c(-c5ccccc5)nc(C(C)(C)C)n4C)nc3)c2cc1OC [Compound 31, 1-(2-tert-Butyl-1-methyl-4-phenyl-1H-imidazol-5-yl)-3-[5-(6,7-dimethoxyquinolin-4-yloxy)pyridin-2-yl]urea]
- pIC50: > 7.00

SMILES: COc1cc2nccc(Oc3ccc(NC(=O)Nc4c(-c5ccccc5F)nc(C(C)(C)C)n4C)c(F)c3)c2cc1OC [Compound 7, 1-[2-tert-Butyl-4-(2-fluorophenyl)-1-methyl-1H-imidazol-5-yl]-3-[4-(6,7-dimethoxyquinolin-4-yloxy)-2-fluorophenyl]urea]
- pIC50: > 7.00

SMILES: COc1cc2nccc(Oc3ccc(NC(=O)Nc4[nH]c(C(C)(C)C)nc4-c4ccccc4F)cc3)c2cc1OC [Compound 65, 1-[2-tert-Butyl-4-(2-fluorophenyl)-1H-imidazol-5-yl]-3-[4-(6,7-dimethoxyquinolin-4-yloxy)phenyl]urea]
- pIC50: > 7.00

SMILES: COc1cc2nccc(Oc3ccc(NC(=O)Nc4c(-c5ccccc5)nc(C(C)(C)C)n4C)cc3F)c2cc1OC [Compound 15, 1-(2-tert-Butyl-1-methyl-4-phenyl-1H-imidazol-5-yl)-3-[4-(6,7-dimethoxyquinolin-4-yloxy)-3-fluorophenyl]urea]
- pIC50: > 7.00

SMILES: COc1cc2nccc(Oc3ccc(NC(=O)Nc4c(-c5cccc(F)c5)nc(C(C)C)n4C)cc3)c2cc1OC [Compound 3, 1-[4-(6,7-Dimethoxyquinolin-4-yloxy)phenyl]-3-[4-(3-fluorophenyl)-2-isopropyl-1-methyl-1H-imidazol-5-yl]urea]
- pIC50: > 7.00

SMILES: COc1cc2nccc(Oc3ccc(NC(=O)Nc4[nH]c(C(C)(C)C)nc4-c4ccc(Cl)nc4Cl)cc3)c2cc1OC [Compound 37, 1-[2-tert-Butyl-4-(2,6-dichloropyridin-3-yl)-1H-imidazol-5-yl]-3-[4-(6,7-dimethoxyquinolin-4-yloxy)phenyl]urea]
- pIC50: > 7.00

SMILES: COc1cc2nccc(Oc3ccc(NC(=O)Nc4[nH]c(C(C)(C)C)nc4-c4c(C)noc4C)cc3F)c2cc1OC [Compound 47, 1-[2-tert-Butyl-4-(3,5-dimethylisoxazol-4-yl)-1H-imidazol-5-yl]-3-[4-(6,7-dimethoxyquinolin-4-yloxy)-3-fluorophenyl]urea]
- pIC50: > 7.00

SMILES: COc1cc2nccc(Oc3ccc(NC(=O)Nc4[nH]c(C(C)(C)C)nc4-c4ccc(F)nc4F)cc3)c2cc1OC [Compound 36, 1-[2-tert-Butyl-4-(2,6-difluoropyridin-3-yl)-1H-imidazol-5-yl]-3-[4-(6,7-dimethoxyquinolin-4-yloxy)phenyl]urea]
- pIC50: > 7.00

SMILES: COc1cc2nccc(Oc3ccc(NC(=O)Nc4[nH]c(C(C)(C)C)nc4-c4ccnc(C)c4)cc3)c2cc1OC [Compound 54, 1-[2-tert-Butyl-4-(2-methylpyridin-4-yl)-1H-imidazol-5-yl]-3-[4-(6,7-dimethoxyquinolin-4-yloxy)phenyl]urea]
- pIC50: > 7.00

SMILES: COc1cc2nccc(Oc3ccc(NC(=O)Nc4[nH]c(C(C)(C)C)nc4-c4cncs4)cc3)c2cc1OC [Compound 51, 1-[2-tert-Butyl-4-(thiazol-5-yl)-1H-imidazol-5-yl]-3-[4-(6,7-dimethoxyquinolin-4-yloxy)phenyl]urea]
- pIC50: > 7.00

SMILES: COc1cc2nccc(Oc3ccc(NC(=O)Nc4c(-c5cccc(F)c5)nc(C(C)(C)C)n4C)cc3)c2cc1OC [Compound 17, 1-[2-tert-Butyl-4-(3-fluorophenyl)-1-methyl-1H-imidazol-5-yl]-3-[4-(6,7-dimethoxyquinolin-4-yloxy)phenyl]urea]
- pIC50: > 7.00

SMILES: COc1cc2c(Oc3ccc(NC(=O)Nc4[nH]c(C(C)(C)C)nc4-c4ccnn4C)cc3)ccnc2cc1OCCO [Compound 28, 1-[2-tert-Butyl-4-(1-methyl-1H-pyrazol-5-yl)-1H-imidazol-5-yl]-3-{4-[7-(2-hydroxyethoxy)-6-methoxyquinolin-4-yloxy]phenyl}urea]
- pIC50: > 7.00

SMILES: COc1cc2nccc(Oc3ccc(NC(=O)Nc4[nH]c(C(C)(C)C)nc4-c4cnc(N(C)C)nc4)cc3)c2cc1OC [Compound 57, 1-{2-tert-Butyl-4-[2-(dimethylamino)pyrimidin-5-yl]-1H-imidazol-5-yl}-3-[4-(6,7-dimethoxyquinolin-4-yloxy)phenyl]urea]
- pIC50: > 7.00

SMILES: COc1cc2nccc(Oc3ccc(NC(=O)Nc4[nH]c(C(C)(C)C)nc4C(=O)Nc4ccccn4)cc3)c2cc1OC [Compound 70, 2-tert-Butyl-5-{3-[4-(6,7-dimethoxyquinolin-4-yloxy)phenyl]ureido}-N-(pyridin-2-yl)-1H-imidazole-4-carboxamide]
- pIC50: > 7.00

SMILES: COc1cc2nccc(Oc3ccc(NC(=O)Nc4c(-c5ccccc5F)nc(C(C)(C)C)n4C)nc3)c2cc1OC [Compound 32, 1-[2-tert-Butyl-4-(2-fluorophenyl)-1-methyl-1H-imidazol-5-yl]-3-[5-(6,7-dimethoxyquinolin-4-yloxy)pyridin-2-yl]urea]
- pIC50: > 7.00

SMILES: COc1cc2nccc(Oc3ccc(NC(=O)Nc4[nH]c(C(C)(C)C)nc4-c4ccnn4C)cc3)c2cc1OC [Compound 22, 1-[2-tert-Butyl-4-(1-methyl-1H-pyrazol-5-yl)-1H-imidazol-5-yl]-3-[4-(6,7-dimethoxyquinolin-4-yloxy)phenyl]urea]
- pIC50: > 7.00

SMILES: Cc1noc(C)c1-c1nc(C(C)(C)C)[nH]c1NC(=O)Nc1ccc(Oc2ccnc3cc(C(=O)N4CC[C@@H](N(C)C)C4)sc23)cc1 [Compound 79, (R)-1-{2-tert-Butyl-4-(3,5-dimethylisoxazol-4-yl)-1H-imidazol-5-yl}-3-(4-[2-{3-(dimethylamino)pyrrolidine-1-carbonyl}thieno[3,2-b]pyridin-7-yloxy]phenyl)urea]
- pIC50: > 7.00

SMILES: COc1cc2nccc(Oc3ccc(NC(=O)Nc4[nH]c(C(C)(C)C)nc4/C=C/c4ccncc4)cc3)c2cc1OC [Compound 33, (E)-1-{2-tert-Butyl-4-[2-(pyridin-4-yl)vinyl]-1H-imidazol-5-yl}-3-[4-(6,7-dimethoxyquinolin-4-yloxy)phenyl]urea]
- pIC50: > 7.00

SMILES: COc1cc2nccc(Oc3ccc(NC(=O)Nc4[nH]c(C(C)(C)C)nc4-c4cccnc4Cl)c(Cl)c3)c2cc1C(N)=O [Compound 83, 4-(4-{3-[2-tert-Butyl-4-(2-chloropyridin-3-yl)-1H-imidazol-5-yl]ureido}-3-chlorophenoxy)-7-methoxyquinoline-6-carboxamide]
- pIC50: > 7.00

SMILES: COc1cc2nccc(Oc3ccc(NC(=O)Nc4[nH]c(C(C)(C)C)nc4-c4c(C)noc4C)c(F)c3)c2cc1OC [Compound 49, 1-[2-tert-Butyl-4-(3,5-dimethylisoxazol-4-yl)-1H-imidazol-5-yl]-3-[4-(6,7-dimethoxyquinolin-4-yloxy)-2-fluorophenyl]urea]
- pIC50: > 7.00

SMILES: COc1cc2nccc(Oc3ccc(NC(=O)Nc4[nH]c(C(C)(C)C)nc4-c4cnn(C)c4)cc3)c2cc1OC [Compound 20, 1-[2-tert-Butyl-4-(1-methyl-1H-pyrazol-4-yl)-1H-imidazol-5-yl]-3-[4-(6,7-dimethoxyquinolin-4-yloxy)phenyl]urea]
- pIC50: > 7.00

SMILES: Cc1noc(C)c1-c1nc(C(C)(C)C)[nH]c1NC(=O)Nc1ccc(Oc2ccnc3cc(-c4cn(C)cn4)sc23)cc1 [Compound 80, 1-{2-tert-Butyl-4-(3,5-dimethylisoxazol-4-yl)-1H-imidazol-5-yl}-3-[4-{2-(1-methyl-1H-imidazol-4-yl)thieno[3,2-b]pyridin-7-yloxy}phenyl]urea]
- pIC50: > 7.00

SMILES: COc1cc2nccc(Oc3ccc(NC(=O)Nc4[nH]c(C(C)(C)C)nc4-c4cccnc4Cl)c(F)c3)c2cc1OC [Compound 62, 1-[2-tert-Butyl-4-(2-chloropyridin-3-yl)-1H-imidazol-5-yl]-3-[4-(6,7-dimethoxyquinolin-4-yloxy)-2-fluorophenyl]urea]
- pIC50: > 7.00

SMILES: COc1cc2c(Oc3ccc(NC(=O)Nc4[nH]c(C(C)(C)C)nc4-c4cccnc4Cl)cc3F)ccnc2cc1OCCCN1CCOCC1 [Compound 85, 1-[2-tert-butyl-4-(2-chloropyridin-3-yl)-1H-imidazol-5-yl]-3-{3-fluoro-4-[6-methoxy-7-(3-morpholinopropoxy)quinolin-4-yloxy}phenyl]urea]
- pIC50: > 7.00
